Measured values from publication PMC8379256, “A xanthene derivative, DS20060511, attenuates glucose intolerance by inducing skeletal muscle-specific GLUT4 translocation in mice” (Communications Biology, 2021).
Where “and” joins values, the source holds several entries; their conditions need not be identical. Equal entries are not always repeated. The source gives many values for each of these; only a part stands here.

Test system: C57BL/6 mice
Test: Indirect calorimetry and exercise endurance under stepwise treadmill running
Assay type: in vivo, mouse
Settings: DS20060511 30 mg/kg, individual mice 1-7, Fig. 5a
Procedure: The mice were acclimatized to the treadmill by allowing them to run at 10 m min^−1 for 10 min on the day before the test. On the day of the test, the mice received oral administration of 30 mg kg^−1 of DS20060511 or vehicle 15 min before they were made to run. The treadmill was started at a velocity of 10 m min^−1, with the speed increased stepwise by 2 m min^−1 every 3 min, to assess the exercise endurance capacity as described previously. Measurements of the oxygen consumption (VO2) and exhaled carbon dioxide (VCO2) under treadmill running were conducted with the ARCO-2000 magnetic-type mass spectrometric calorimeter (ARCO System, Kashiwa, Japan) connected to the treadmill chamber (MB-2000, ARCO System). The RER was calculated as the VCO2/VO2 ratio and the substrate utilization rates were calculated using Frayn’s formula[51]: rate of glucose oxidation = 4.585VCO2 − 3.226VO2; rate of fat oxidation = 1.695VO2 − 1.701VCO2. The exercise endurance capacity under treadmill running was determined by measuring the time from the start to the time until the mice ceased to run because of exhaustion, which was defined as remaining on the shocker plate for more than 10 sec. Immediately after the exercise, the blood glucose and lactate levels were measured using Glutest Every and Lactate Pro2 (ARKRAY, Kyoto, Japan), respectively, in blood samples collected from the tail vein.

SMILES: COc1ccc2c(C)c(C(=O)O)ccc2c1C1C2=C(CC(C)(C)CC2=O)OC2=C1C(=O)CC(C)(C)C2 [DS20060511]
- Respiratory quotient (16 min): 0.78 and 0.86 and 0.76 and 0.89
- CO2 Production (VCO2) (17 min): 102.6 mL/min/kg and 80.5 mL/min/kg and 83.3 mL/min/kg and 89.8 mL/min/kg and 70.1 mL/min/kg and 76.9 mL/min/kg and 107.2 mL/min/kg
- O2 Consumption (VO2) (17 min): 103.4 mL/min/kg and 100.7 mL/min/kg and 87.8 mL/min/kg and 97.5 mL/min/kg and 121.6 mL/min/kg and 126.0 mL/min/kg and 94.2 mL/min/kg
- Respiratory quotient (17 min): 0.81 (2×) and 0.85 and 0.89 and 0.80 and 0.79 and 0.88
- CO2 Production (VCO2) (18 min): 98.6 mL/min/kg and 80.1 mL/min/kg and 82.1 mL/min/kg and 91.5 mL/min/kg and 69.5 mL/min/kg and 79.8 mL/min/kg and 109.4 mL/min/kg
- O2 Consumption (VO2) (18 min): 105.0 mL/min/kg and 107.4 mL/min/kg and 86.8 mL/min/kg and 99.6 mL/min/kg and 125.8 mL/min/kg and 122.7 mL/min/kg and 94.2 mL/min/kg
- Respiratory quotient (18 min): 0.80 (3×) and 0.85 (2×) and 0.78 and 0.87
- CO2 Production (VCO2) (19 min): 98.1 mL/min/kg and 81.0 mL/min/kg and 80.8 mL/min/kg and 89.6 mL/min/kg and 72.7 mL/min/kg and 77.2 mL/min/kg and 110.0 mL/min/kg
- O2 Consumption (VO2) (19 min): 103.1 mL/min/kg and 107.1 mL/min/kg and 91.6 mL/min/kg and 94.9 mL/min/kg and 125.7 mL/min/kg and 121.0 mL/min/kg and 95.8 mL/min/kg
- Respiratory quotient (19 min): 0.81 (2×) and 0.84 (2×) and 0.78 and 0.79 and 0.88
- CO2 Production (VCO2) (20 min): 97.2 mL/min/kg and 85.4 mL/min/kg and 85.1 mL/min/kg and 87.4 mL/min/kg and 72.3 mL/min/kg and 77.3 mL/min/kg and 106.6 mL/min/kg
- O2 Consumption (VO2) (20 min): 106.7 mL/min/kg and 104.2 mL/min/kg and 89.9 mL/min/kg and 95.9 mL/min/kg and 124.1 mL/min/kg and 122.6 mL/min/kg and 100.1 mL/min/kg
- Respiratory quotient (20 min): 0.79 and 0.85 and 0.80 (2×) and 0.84 and 0.81 and 0.86
- CO2 Production (VCO2) (21 min): 97.2 mL/min/kg and 82.4 mL/min/kg and 85.1 mL/min/kg and 92.2 mL/min/kg and 73.6 mL/min/kg and 77.1 mL/min/kg and 108.9 mL/min/kg
- O2 Consumption (VO2) (21 min): 106.9 mL/min/kg and 109.6 mL/min/kg and 99.3 mL/min/kg and 95.8 mL/min/kg and 126.6 mL/min/kg and 123.0 mL/min/kg and 98.1 mL/min/kg
- Respiratory quotient (21 min): 0.79 and 0.84 (2×) and 0.80 and 0.74 and 0.81 and 0.86
- CO2 Production (VCO2) (22 min): 98.8 mL/min/kg and 81.4 mL/min/kg and 84.3 mL/min/kg and 88.0 mL/min/kg and 87.9 mL/min/kg and 75.3 mL/min/kg and 109.5 mL/min/kg
- O2 Consumption (VO2) (22 min): 106.6 mL/min/kg and 104.4 mL/min/kg and 102.6 mL/min/kg and 94.6 mL/min/kg and 129.0 mL/min/kg and 123.2 mL/min/kg and 96.7 mL/min/kg
- Respiratory quotient (22 min): 0.80 (2×) and 0.84 (2×) and 0.79 and 0.86 and 0.85
- CO2 Production (VCO2) (23 min): 101.3 mL/min/kg and 87.6 mL/min/kg and 86.2 mL/min/kg and 88.9 mL/min/kg and 89.5 mL/min/kg and 73.0 mL/min/kg and 108.0 mL/min/kg
- O2 Consumption (VO2) (23 min): 108.1 mL/min/kg and 105.9 mL/min/kg and 105.2 mL/min/kg and 92.7 mL/min/kg and 127.9 mL/min/kg and 126.3 mL/min/kg and 102.6 mL/min/kg
- Respiratory quotient (23 min): 0.80 (2×) and 0.85 (2×) and 0.84 (2×) and 0.79
- CO2 Production (VCO2) (24 min): 99.1 mL/min/kg and 91.3 mL/min/kg and 86.5 mL/min/kg and 90.9 mL/min/kg and 97.7 mL/min/kg and 73.0 mL/min/kg and 109.0 mL/min/kg
- O2 Consumption (VO2) (24 min): 108.9 mL/min/kg and 108.3 mL/min/kg and 112.8 mL/min/kg and 90.9 mL/min/kg and 129.9 mL/min/kg and 119.4 mL/min/kg and 105.4 mL/min/kg
- Respiratory quotient (24 min): 0.83 and 0.87 (2×) and 0.79 and 0.84 (2×) and 0.80
- CO2 Production (VCO2) (25 min): 95.1 mL/min/kg and 101.9 mL/min/kg and 86.8 mL/min/kg and 92.1 mL/min/kg and 97.1 mL/min/kg and 75.6 mL/min/kg and 108.3 mL/min/kg
- O2 Consumption (VO2) (25 min): 107.8 mL/min/kg and 109.0 mL/min/kg and 111.5 mL/min/kg and 96.0 mL/min/kg and 130.3 mL/min/kg and 116.8 mL/min/kg and 115.1 mL/min/kg
- Respiratory quotient (25 min): 0.81 (2×) and 0.89 and 0.85 and 0.87 and 0.79 and 0.83
- CO2 Production (VCO2) (26 min): 105.9 mL/min/kg and 106.7 mL/min/kg and 91.0 mL/min/kg and 89.8 mL/min/kg and 99.2 mL/min/kg and 76.4 mL/min/kg and 104.5 mL/min/kg
- O2 Consumption (VO2) (26 min): 108.8 mL/min/kg and 104.5 mL/min/kg and 112.1 mL/min/kg and 95.8 mL/min/kg and 127.5 mL/min/kg and 123.0 mL/min/kg and 119.0 mL/min/kg
- Respiratory quotient (26 min): 0.86 (2×) and 0.90 and 0.84 and 0.89 and 0.80 and 0.82
- CO2 Production (VCO2) (27 min): 110.9 mL/min/kg and 105.4 mL/min/kg and 92.2 mL/min/kg and 92.6 mL/min/kg and 97.1 mL/min/kg and 78.4 mL/min/kg and 105.9 mL/min/kg
- O2 Consumption (VO2) (27 min): 113.0 ml/min/kg and 109.1 ml/min/kg (2×) and 98.2 ml/min/kg and 129.9 ml/min/kg and 125.6 ml/min/kg and 119.1 ml/min/kg
- Respiratory quotient (27 min): 0.88 and 0.89 (2×) and 0.82 (2×) and 0.85 and 0.80
- CO2 Production (VCO2) (28 min): 109.8 mL/min/kg and 107.4 mL/min/kg and 89.9 mL/min/kg and 93.1 mL/min/kg and 97.2 mL/min/kg and 75.3 mL/min/kg and 104.6 mL/min/kg
- O2 Consumption (VO2) (28 min): 110.8 mL/min/kg and 107.2 mL/min/kg and 112.5 mL/min/kg and 94.0 mL/min/kg and 130.4 mL/min/kg and 125.6 mL/min/kg and 121.3 mL/min/kg
- Respiratory quotient (28 min): 0.87 (2×) and 0.89 and 0.81 and 0.86 and 0.80 (2×)
- CO2 Production (VCO2) (29 min): 117.5 mL/min/kg and 107.4 mL/min/kg and 85.3 mL/min/kg and 89.8 mL/min/kg and 98.8 mL/min/kg and 74.5 mL/min/kg and 102.4 mL/min/kg
- O2 Consumption (VO2) (29 min): 104.5 mL/min/kg and 107.5 mL/min/kg and 114.5 mL/min/kg and 92.4 mL/min/kg and 127.2 mL/min/kg and 132.2 mL/min/kg and 121.5 mL/min/kg
- Respiratory quotient (29 min): 0.89 and 0.88 and 0.82 and 0.84 and 0.86 and 0.81 (2×)
- CO2 Production (VCO2) (30 min): 121.6 mL/min/kg and 108.7 mL/min/kg and 93.3 mL/min/kg and 90.8 mL/min/kg and 98.4 mL/min/kg and 78.4 mL/min/kg and 97.4 mL/min/kg
- O2 Consumption (VO2) (30 min): 112.8 mL/min/kg and 106.7 mL/min/kg and 115.0 mL/min/kg and 94.2 mL/min/kg and 122.8 mL/min/kg and 136.3 mL/min/kg and 122.9 mL/min/kg
- Respiratory quotient (30 min): 0.89 and 0.88 and 0.83 (2×) and 0.85 and 0.86 and 0.79
